Measurements from PubChem BioAssay AID2685 (National Center for Advancing Translational Sciences (NCATS), 2010).
The other results are listed elsewhere or left out. These are further read-outs of the screen, such as a control signal, another cell line or another target. No call is given for them. Compounds called inactive in the main read-out are mostly missing here. Words in brackets tell the shape of the fitted curve; partial curves, single points and poor fits give uncertain potencies.

Experiment: qHTS Assay for Lipid Storage Modulators in Drosophila S3 Cells;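 on cell number change: cells counted by Cell Tracker Red CMTPX staining in the red channel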
Details: BODIPY lipid droplet fluorescence, 18-24 h; for cell number change: measured here: cell count max response, cells fed with added oleic acid
Procedure, shortened: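 Laser-scanning cytometry quantifies lipid droplet accumulation (500–530 nm total intensity; droplet/cell object ratio) in oleic acid-fed (400 uM added) Drosophila S3 cells treated with a concentration series. 20 uM Triacsin C defined 100% inhibition.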

[1] = measured here: cell number channel AC50, cells fed with added oleic acid
[2] = measured here: lipid fluorescence (Fed channel) AC50, cells fed with added oleic acid

Compound	cell number change	AC50 [1]	AC50 [2]
CCN(CC)S(=O)(=O)c1ccc(N2CCCC2)c(NC(=O)c2ccncc2)c1	30.5%		
O=C(CSc1nc(-c2ccco2)cc(C(F)(F)F)n1)Nc1ccc(C(=O)N2CCOCC2)cc1	-58.3%	18.4 µM [falling, partial curve]	10.3 µM [falling, partial curve]
N#C/C(=C\c1c(N2CCC(C(N)=O)CC2)nc2ccccn2c1=O)S(=O)(=O)c1ccccc1	36.1%	3.66 µM [rising, full curve, poor fit]	
CCN(CC(=O)NCc1cccs1)C(=O)COc1ccc(C(N)=O)cc1	5.61%		
CCCCCOc1ccc(C(=O)CCC(=O)Nc2ccc(NC(C)=O)cc2)cc1	-26.1%		11.6 µM [rising, partial curve]
O=C(c1cccc(N2C(=O)C3C4C=CC(C4)C3C2=O)c1)N1CCN(c2ccccc2F)CC1 (configuration not stated)	-2.12%		4.61 µM [rising, single point]
COc1cc(/C=C2\SC(=S)N(NC(=O)c3ccncc3)C2=O)ccc1O	-99.8%	29.1 µM [falling, single point]	20.6 µM [falling, partial curve]
COc1ccccc1NC(=O)c1ccc(COc2ccccc2Br)o1	-22.7%		9.2 µM [falling, partial curve]
CCN1CCN(c2ccc(S(=O)(=O)N3CCCCC3)cc2NC(=O)c2cccc(NC(C)=O)c2)CC1	70%	11.6 µM [rising, partial curve]	
CCN(CC)c1ccc(C(=O)N/N=C/c2ccc(OC)cc2OC)cc1		0.231 µM [rising, full curve, poor fit]	0.291 µM [rising, partial curve, poor fit]
Cc1nc2ccccc2n1CC(=O)NC(C)C1CC2CCC1C2 (configuration not stated)	-10.8%	1.16 µM [falling, partial curve, poor fit]	
CN1CCN(c2ccc(C(=O)NC3CCCCC3)cc2[N+](=O)[O-])CC1	5.06%		3.66 µM [falling, single point]
COc1cccc(CNC(=O)CSc2nc3c(oc4ccccc43)c(=O)n2CC2CCCO2)c1 (configuration not stated)	-6.94%		
O=C(CSc1nnc(CNC(=O)c2ccc(F)cc2)o1)Nc1ccc2c(c1)OCO2	-28.6%		29.1 µM [falling, single point]
CCCn1c(CNc2ccc(Br)cc2)nc2ccccc21	-44.5%	29.1 µM [falling, single point]	6.51 µM [falling, single point]
C#CCOCCOCCOCCNc1nc(N2CCN(C(=O)[C@H](Cc3cc4ccccc4[nH]3)n3cc([C@@H](N)C(C)CC)nn3)CC2)nc(N2CCN(C(=O)[C@H](Cc3cc4ccccc4[nH]3)n3cc([C@@H](N)CC(C)C)nn3)CC2)n1 (some centres not stated)	-42.2%	29.1 µM [falling, single point]	25.9 µM [falling, partial curve, poor fit]
Cc1cc(C(=O)Nc2ccc(C#N)cc2)on1	8.26%		29.1 µM [rising, single point]
C=CCc1cc(/C=N\NC(=O)CSc2nnc(CCCc3ccc(OC)c(C)c3)o2)cc(OC)c1O	-7.56%		
COC(=O)c1cc(OC)c(OC)cc1NC(=S)N1CCC(C(N)=O)CC1	37.2%	0.731 µM [rising, full curve]	1.64 µM [rising, partial curve]
Cc1cc(N2CCN(C(=O)c3ccco3)CC2)n2nc(C)c(-c3ccccc3)c2n1	-32.2%	8.2 µM [falling, single point]	

Compound	cell number change	AC50 [1]	AC50 [2]
CSCCC(NC(=O)COc1ccccc1)C(=O)OCCOc1ccc(F)cc1 (configuration not stated)		7.31 µM [rising, partial curve]	
COc1ccc(C(CNC(=O)COc2ccc(F)cc2Br)N2CCCC2)cc1 (configuration not stated)	40.5%	29.1 µM [rising, single point]	
O=c1cc(-c2ccccc2)nc(SCCOc2ccccc2Cl)[nH]1	0.596%		0.326 µM [rising, single point]
CCOc1ccc(-n2cnnn2)cc1S(=O)(=O)NC1CC1	1.86%		10.3 µM [rising, partial curve]
Cc1[nH]n(-c2ccccc2)c(=O)c1N=Nc1ccc2c(c1)OCCO2	-64.5%	29.1 µM [falling, single point]	
COc1ccc([N+](=O)[O-])cc1/C=N/NC(=O)c1nonc1N	33.5%	0.00461 µM [rising, full curve]	
CC1CCc2c(sc(NC(=O)c3ccc(N4C(=O)CCC4=O)cc3)c2C(N)=O)C1 (configuration not stated)	3.98%		7.31 µM [rising, single point]
CCOC(=O)c1cnn(CCOC(=O)c2cccc(F)c2)c1NC(=O)c1cccc(F)c1	-40.1%	20.6 µM [falling, single point]	4.61 µM [falling, single point]
C=CCNC(=O)c1oc2ccc(S(=O)(=O)N(CC)CC)cc2c1C	-33.3%	1.84 µM [falling, full curve]	1.64 µM [falling, full curve, poor fit]
CCOC(=O)C(NCCCCl)c1ccccc1 (configuration not stated)	-24.8%		
CN(C)S(=O)(=O)N1CCN(C(=O)N2CCCCC2)CC1	-41.7%	14.6 µM [falling, partial curve]	
COc1cccc(C2c3[nH]c4ccccc4c3C[C@H]3C(=O)N(c4ccccc4C(=O)N4CCCC4C(=O)O)C(=O)N23)c1 (some centres not stated)	15.9%		
CCCCc1ccc(NC(=O)CC(C)(C)C)cc1	-0.344%		32.6 µM [falling, single point]
CC(C)COC(=O)COc1cc(Cl)c(Cl)cc1Cl	6.73%		
CCCCn1c(N)c(N(CC(C)C)C(=O)C2CCCN(C(=O)c3ccc(Cl)cc3)C2)c(=O)[nH]c1=O (configuration not stated)	-3.31%		6.51 µM [rising, single point]
CCN(C(=O)c1ccc2c(=O)n3c(nc2c1)CCCCC3)c1ccccc1C	-18.7%	1.64 µM [falling, partial curve, poor fit]	
O=S(=O)(NCC1(N2CCOCC2)CCCCC1)c1ccccc1Cl			0.82 µM [falling, single point]
CC(C)n1nc(C(=O)OCC(=O)N2CC(=O)Nc3ccccc32)c2ccccc2c1=O	-36.9%		
CCOC(=O)C1=C(C)C2C3C(=O)N(c4ccc(C)cc4C)C(=O)C3C1(C)C1C(=O)N(c3ccc(C)cc3C)C(=O)C21 (configuration not stated)	3.47%		3.66 µM [rising, single point]
O=C(CC1S/C(=N/N=C2CCCCCC2)NC1=O)Nc1ccccc1F (configuration not stated)	-11.9%		0.58 µM [rising, single point]

Compound	cell number change	AC50 [1]	AC50 [2]
CN1C(=O)C(C)(C)c2cc(S(=O)(=O)N3CCC(C(=O)NCc4ccc(Cl)cc4)CC3)ccc21	8.06%		
Cc1cc(C(=O)CSc2nnc(-c3ccccc3)n2Cc2ccc3c(c2)OCO3)c(C)n1C	-90.7%	18.4 µM [falling, single point]	29.1 µM [falling, single point]
CCCOc1ccc(/C=N/NC(=S)Nc2ccccc2[N+](=O)[O-])c(O)c1	-20.7%		6.51 µM [rising, full curve]
CN(C)S(=O)(=O)c1cccc(C(=O)Nc2ccc3c(c2)CCC3)c1	17.1%		
Cc1ccc(Cc2cc(-c3ccc(C)cc3)n[nH]c2=O)cc1	7.07%		0.00517 µM [falling, full curve, poor fit]
CC1CC(C)CN(CCCNC(=O)c2ccc3nc(N4CCOCC4)sc3c2)C1 (configuration not stated)	23.1%		
Cc1nnsc1NC(=O)OCC(C)(C)C	-39.4%		11.6 µM [rising, single point]
COCCN1Cc2cccc(C(=O)Nc3c(C)cccc3C)c2C1=O		1.3 µM [rising, partial curve]	0.731 µM [rising, full curve]
O=C1CCC(C(=O)N2CCC(CO)CC2)CN1Cc1ccc(Cl)cc1 (configuration not stated)	3.47%		1.16 µM [rising, full curve, poor fit]
Cc1c(Cl)cccc1-n1c(SCC(=O)N2CCC(C(=O)O)CC2)nc2ccccc2c1=O	-11.5%		
CCOC(=O)COc1ccc(C2NC(C(=O)O)CS2)cc1 (configuration not stated)	-177%	29.1 µM [falling, partial curve]	23.1 µM [falling, partial curve]
COCCOc1ccc(C(F)(F)F)cc1NC(=O)CN1C(=O)NC(C)(c2ccc3c(c2)OCO3)C1=O (configuration not stated)	13.5%		
O=C(NC(=S)Nc1cccnc1)c1cccc(Br)c1	-6.58%	0.517 µM [falling, single point]	
COc1ccccc1C1C(C(=O)c2sc(C)nc2C)=C(O)C(=O)N1CCN1CCOCC1 (configuration not stated)	5.1%		
O=C(C[n+]1cccc2ccccc21)c1ccc(NC(=O)c2ccccc2)cc1	-8.71%	1.84 µM [falling, partial curve, poor fit]	0.00461 µM [falling, full curve, poor fit]
CNC(=O)CN(c1cc(C)ccc1C)S(C)(=O)=O	-3.43%		
COc1ccc(NC(=O)C2CCN(C(=O)c3cccs3)CC2)cc1OC	55.7%	10.3 µM [rising, partial curve, poor fit]	
Cc1nc(C)c(NC(=O)N2CCc3ccccc32)cc1NC(=O)N1CCc2ccccc21	-0.443%		6.51 µM [rising, full curve, poor fit]
O=C1CCC(=O)N1CN(C(=O)c1ccco1)c1ccc(Cl)c(Cl)c1	-33.2%	0.82 µM [falling, full curve, poor fit]	4.61 µM [falling, full curve, poor fit]
